The assay has as its target LexA-MAP6d1 (mouse) (UniProt Q14BB9). As to the kind of experiment: two-hybrid; yeast two-hybrid, LexA bait (pLex10) and GAD prey (pAct2); growth on medium lacking leucine, tryptophan and histidine, and β-galactosidase staining.

The chains behind the UniProt entries cited, without tags or fusion partners.
UniProt Q14BB9: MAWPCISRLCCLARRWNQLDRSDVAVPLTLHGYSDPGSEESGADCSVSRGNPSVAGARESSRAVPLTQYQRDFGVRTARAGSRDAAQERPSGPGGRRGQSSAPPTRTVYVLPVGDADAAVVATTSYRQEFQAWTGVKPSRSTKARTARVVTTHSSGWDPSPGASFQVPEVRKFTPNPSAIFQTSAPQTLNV

Results are given in words; binding and its absence hold for the method and conditions named. Some entries that bind do so weakly or less than the wild type.

B1: MAP6-E (protein, UniProt Q7TSJ2-2 1-568)
chain: MAWPCITRACCIARFWNQLDKADIAVPLVFTKYSEATEHPGAPPQPPAPLQPALAPPSRAVAIETQPAQGESDAVARATGPAPGPSVDRETVAAPGRSGLGLGAASASTSGSGPADSVMRQDYRAWKVQRPEPSCRPRSEYQPSDAPFERETQYQKDFRAWPLPRRGDHPWIPKPVQIPATSQPSQPVLGVPKRRPQSQERGPMQLSADARDPEGAGGAGVLAAGKASGVDQRDTRRKAGPAWMVTRNEGHEEKPLPPAQSQTQEGGPAAGKASGADQRDTRRKAGPAWMVTRSEGHEEKPLPPAQSQTQEGGPAAGKASGADQRDTRRKAGPAWMVTRTEGHEETPLPPAQSQTQEGGPAAGKASGADERDTRRKAGPAWMVRRSEGHEQTPAAHAQGTGPEGGKGRAVADALNRQIREEVASTVSSSYRNEFRAWTDIKPVKPIKAKPQYKPPDDKMVHETSYSAQFKGEANKPSAADNKAMDRRRIRSLYSEPFKECPKVEKPSVQSSKPKKTSTSHKPPRKAKDKQVVSGQAAKKKTTEGPSATKPDDKEQSKEMNNKLAEAKE
B1: the binding result is given as “binds”.
